From paper PMC12394690

Amino acid sequences for entries named in this document (tags omitted).
UniProt O00327: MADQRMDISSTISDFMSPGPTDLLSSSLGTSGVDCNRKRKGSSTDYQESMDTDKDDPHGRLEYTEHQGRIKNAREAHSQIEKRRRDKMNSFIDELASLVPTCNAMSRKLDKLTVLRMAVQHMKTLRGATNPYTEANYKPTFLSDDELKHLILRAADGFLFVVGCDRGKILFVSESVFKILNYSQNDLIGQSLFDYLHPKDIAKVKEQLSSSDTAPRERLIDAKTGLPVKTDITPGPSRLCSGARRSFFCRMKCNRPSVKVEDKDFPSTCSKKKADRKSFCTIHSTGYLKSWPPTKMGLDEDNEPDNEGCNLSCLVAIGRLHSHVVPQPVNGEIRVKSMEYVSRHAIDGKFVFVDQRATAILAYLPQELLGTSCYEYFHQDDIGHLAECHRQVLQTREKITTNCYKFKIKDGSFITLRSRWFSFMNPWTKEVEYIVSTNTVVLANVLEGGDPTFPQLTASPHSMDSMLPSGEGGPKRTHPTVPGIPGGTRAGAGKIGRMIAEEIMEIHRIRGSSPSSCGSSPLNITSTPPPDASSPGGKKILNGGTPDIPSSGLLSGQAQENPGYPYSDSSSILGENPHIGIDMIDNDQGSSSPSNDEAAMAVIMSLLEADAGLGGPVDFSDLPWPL
UniProt Q16531: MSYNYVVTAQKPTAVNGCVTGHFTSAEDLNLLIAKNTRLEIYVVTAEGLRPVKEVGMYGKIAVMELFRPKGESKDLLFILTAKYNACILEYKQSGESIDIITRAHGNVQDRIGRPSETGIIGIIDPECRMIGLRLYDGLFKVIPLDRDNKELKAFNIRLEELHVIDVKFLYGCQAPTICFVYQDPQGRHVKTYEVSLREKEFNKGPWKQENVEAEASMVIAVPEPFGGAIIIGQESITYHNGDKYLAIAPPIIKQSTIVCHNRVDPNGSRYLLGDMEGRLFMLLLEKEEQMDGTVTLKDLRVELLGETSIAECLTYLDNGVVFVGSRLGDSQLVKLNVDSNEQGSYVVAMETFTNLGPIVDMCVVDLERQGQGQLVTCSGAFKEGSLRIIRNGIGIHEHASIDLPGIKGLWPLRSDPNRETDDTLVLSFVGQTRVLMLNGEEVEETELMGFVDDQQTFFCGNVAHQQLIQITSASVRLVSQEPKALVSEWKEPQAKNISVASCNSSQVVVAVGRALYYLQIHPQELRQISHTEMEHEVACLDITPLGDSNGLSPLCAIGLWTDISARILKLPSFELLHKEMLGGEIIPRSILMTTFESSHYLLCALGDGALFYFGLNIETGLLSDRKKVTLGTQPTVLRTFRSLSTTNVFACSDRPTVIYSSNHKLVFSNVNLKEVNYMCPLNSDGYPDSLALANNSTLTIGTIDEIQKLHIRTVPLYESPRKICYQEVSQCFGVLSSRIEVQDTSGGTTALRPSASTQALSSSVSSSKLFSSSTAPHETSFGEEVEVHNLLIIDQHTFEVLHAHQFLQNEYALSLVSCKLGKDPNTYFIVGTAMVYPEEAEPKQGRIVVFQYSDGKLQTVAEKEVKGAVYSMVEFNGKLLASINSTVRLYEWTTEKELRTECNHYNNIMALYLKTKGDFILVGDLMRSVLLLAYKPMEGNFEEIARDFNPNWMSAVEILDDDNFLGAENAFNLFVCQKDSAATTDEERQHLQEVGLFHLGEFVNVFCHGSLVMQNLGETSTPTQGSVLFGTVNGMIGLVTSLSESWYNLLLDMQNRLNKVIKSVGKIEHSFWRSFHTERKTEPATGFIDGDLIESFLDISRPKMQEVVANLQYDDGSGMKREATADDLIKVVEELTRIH

Target: T1, DDB1- and CUL4-associated factor 7 (DCAF7), expressed from a plasmid (UniProt P61962)
T1 sequence: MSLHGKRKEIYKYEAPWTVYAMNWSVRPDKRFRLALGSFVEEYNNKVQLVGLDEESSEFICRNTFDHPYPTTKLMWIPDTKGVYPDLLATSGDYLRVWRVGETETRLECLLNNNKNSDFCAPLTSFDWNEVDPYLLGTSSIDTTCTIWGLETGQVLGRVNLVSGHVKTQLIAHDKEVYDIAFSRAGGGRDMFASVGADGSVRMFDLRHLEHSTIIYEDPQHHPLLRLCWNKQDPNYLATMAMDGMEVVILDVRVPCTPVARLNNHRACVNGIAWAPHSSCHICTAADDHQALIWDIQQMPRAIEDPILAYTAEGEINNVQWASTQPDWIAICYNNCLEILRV
Experiment: affinity purification with mass spectrometry; immunoprecipitation of DCAF7, MS/MS, quantitative proteomics (volcano plot); details in the supplementary methods

binding	Substance
binds	BMAL1, endogenous (from UniProt O00327 1-626)
binds	DDB1, found in the DCAF7 IP-MS/MS (from UniProt Q16531 1-1140)

These are yes or no findings as the source states them, for the method shown. In cells and extracts the contact can be indirect. Here binding means that the protein was enriched with, or labelled near, the bait; the list need not be complete.
